The other results are listed elsewhere or left out. The main result of the screen is listed elsewhere. These columns were measured beside it and carry no call. Most of these compounds were active or inconclusive in the main read-out, so they are no random draw. The note in brackets gives the kind of curve behind each potency; many fits are weak.
Experiment: qHTS Assay for Lipid Storage Modulators in Drosophila S3 Cells;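 as to cell number change: cells counted by Cell Tracker Red CMTPX staining in the red channel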
Conditions: BODIPY lipid droplet fluorescence, 18-24 h; for cell number change: measured here: cell count max response, cells fed with added oleic acid
Method in brief: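 Laser-scanning cytometry quantifies lipid droplet accumulation (500–530 nm total intensity; droplet/cell object ratio) in oleic acid-fed (400 uM added) Drosophila S3 cells treated with a concentration series. 20 uM Triacsin C defined 100% inhibition.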

[1] = measured here: lipid fluorescence (Fed channel) AC50, cells fed with added oleic acid
[2] = measured here: cell number channel AC50, cells fed with added oleic acid

SMILES | cell number change [%] | AC50 [1] | AC50 [2]
COc1ccc(OC)c(NC(=O)CN2CCC(NC(=O)c3ccccc3C)CC2)c1 | -23.8 | 6.51 µM [falling, single point] | –
CN(C)CC(=O)c1ccc(-c2ccccc2)cc1 | -18.3 | – | –
Cc1cc(=O)cc(C)[nH]1 | -56 | 29.1 µM [falling, partial curve, poor fit] | 3.66 µM [falling, full curve]
Cn1c(=O)cc(OCCCC(=O)NCc2ccc3c(c2)OCO3)c2ccccc21 | 14.7 | 6.51 µM [rising, partial curve] | –
O=C(c1ccco1)N1CCCC(c2nc(-c3ccc(S(=O)(=O)NCc4ccccc4)cc3)no2)C1 (stereo unspecified) | -22.7 | 18.4 µM [falling, single point] | –
CCCOc1ccc(CCc2n[nH]c(=S)n2Cc2ccccc2)cc1 | -68.6 | 18.4 µM [falling, partial curve] | 16.4 µM [falling, partial curve]
COc1ccc(OCC(=O)NNC(=O)C(=O)N2CCCC2)cc1 | – | 0.82 µM [rising, partial curve, poor fit] | 0.82 µM [rising, partial curve, poor fit]
CCC(=O)CCC(=O)c1ccc2ccccc2c1 | 18.1 | – | –
Cc1ccc(CCCNC(=O)C2CCC(=O)N(Cc3cccc(F)c3)C2)cc1 (stereo unspecified) | 17.9 | 3.66 µM [falling, full curve] | –
CCN(CC)S(=O)(=O)c1ccc(Cl)c(C(=O)OCC(=O)c2c(N)n(C)c(=O)n(C)c2=O)c1 | -51.4 | 8.2 µM [falling, partial curve] | 9.2 µM [falling, partial curve, poor fit]
N/C(=N\OS(=O)(=O)c1ccc(Cl)cc1)c1ccncc1 | 93.2 | 23.1 µM [rising, partial curve] | –
COC(=O)c1[nH]c2ccccc2c1NC(=O)CCN1CCN(C2CCCCC2)CC1 | -7.11 | 2.06 µM [falling, partial curve, poor fit] | –
CCOC(=O)C1CCN(C/C=C/c2ccccc2[N+](=O)[O-])CC1 | 10.8 | – | –
COc1ccc(OCc2cc(C(=O)N(C)Cc3cc(C4CC4)n[nH]3)no2)c(Cl)c1 | -19.1 | – | 6.51 µM [falling, single point]
O=C(NC1CC(=O)N(c2ccc3c(c2)OCCO3)C1)N1CCC(O)CC1 (stereo unspecified) | -25 | – | 3.66 µM [falling, single point]
COc1ccc(NC2CCCN(C(=O)CSc3ccncc3)C2)cc1 (stereo unspecified) | – | 29.1 µM [falling, single point] | –
CC(C)(CNS(=O)(=O)c1ccc2c(c1)OCCO2)N1CCOCC1 | – | 6.51 µM [rising, single point] | 6.51 µM [rising, single point]
COc1ccc(C)cc1Nc1n[n+](-c2ccccc2)c(-c2ccc(OC)c(OC)c2OC)s1 | -28.5 | – | –
CCOC(=O)c1sc(N/N=C/c2cc(Br)c(O)c(OC)c2)nc1C | -1.4 | 5.17 µM [falling, full curve] | –
COc1ccc(CCNC(=O)c2ccc3nc4cc(Cl)ccc4c(=O)n3c2)cc1OC | 239 | 20.6 µM [falling, single point] | 29.1 µM [rising, single point]

SMILES | cell number change [%] | AC50 [1] | AC50 [2]
COc1ccc(Cl)cc1NC(=O)c1ccc2c(SCC(=O)O)c3c(nc2c1)CCCC3 | -15.6 | 0.259 µM [rising, partial curve, poor fit] | –
COc1ccc(NC(=O)c2ccccc2NC(=O)c2ccccc2)cc1 | 1.92 | – | –
CC(C)CC(=O)Nc1nnc(SCC(=O)Nc2ccc3c(c2)OCO3)s1 | 7.78 | 0.058 µM [rising, full curve, poor fit] | –
O=C(Nc1ccccc1Cl)Oc1ccc(Cl)cc1Cl | -51.8 | 18.4 µM [falling, single point] | –
COc1ccc(N/C=C(\C#N)c2nc3ccccc3n2C)c(OC)c1 | -8.67 | 0.00517 µM [rising, full curve, poor fit] | –
CCC(C)NCC(=O)Nc1ccc(-c2nc3cc(NC(=O)CNC(C)CC)ccc3o2)cc1 (stereo unspecified) | -9.34 | 20.6 µM [falling, single point] | –
CC(C)C[C@@H](CN=[N+]=[N-])N1CCN(C)CCC1=O | -4.21 | – | –
COC(=O)COc1ccc(/C=N/NS(=O)(=O)c2ccccc2)cc1 | 20.8 | 0.461 µM [rising, full curve, poor fit] | 0.00411 µM [rising, full curve, poor fit]
Cc1ccc(C(=O)Nc2cccc(NC(=O)c3ccc(C)c([N+](=O)[O-])c3)n2)cc1[N+](=O)[O-] | – | 6.51 µM [falling, single point] | –
COC(=O)c1scc(C)c1N/N=C(\C)c1cc(F)c(Cl)cc1F | -80.8 | 29.1 µM [falling, single point] | 29.1 µM [falling, single point]
CCc1ccccc1NC(=O)c1ccccc1N1C(=O)C2C3C=CC(C3)C2C1=O (stereo unspecified) | -2.89 | – | –
CN(C(=O)COC(=O)c1cccc(Cl)c1)C1CCS(=O)(=O)C1 (stereo unspecified) | 43.3 | 25.9 µM [rising, partial curve, poor fit] | 25.9 µM [rising, single point]
COc1cc(C2NC(=O)c3ccccc3O2)cc(OC)c1OC (stereo unspecified) | 36.9 | 29.1 µM [rising, partial curve, poor fit] | 0.0231 µM [rising, full curve, poor fit]
Cn1ncc(Cl)c1C(=O)N/N=C/c1ccccn1 | -12.1 | – | –
O=C(c1ccco1)N1CCN(C(=O)c2cnn(-c3cccc(F)c3)c2C2CCNCC2)CC1 | -0.382 | – | –
Cc1nn(CCCC(=O)O)c(C)c1[N+](=O)[O-] | 21.9 | – | –
O=C(/C=C/c1ccc(O)cc1)c1ccccc1 | -22.8 | 18.4 µM [falling, partial curve, poor fit] | –
CCc1ccc2[nH]c(=O)c(C(c3nnnn3Cc3ccccc3)N3CCOCC3)cc2c1 (stereo unspecified) | 0.537 | – | –
CC(C)OCCCn1c(=O)c2ccccc2n2c(CCC(=O)NC3CCN(Cc4ccccc4)CC3)nnc12 | -19.6 | – | –
Cn1c(=O)cc(SCC(=O)N2CCN(c3ccccc3)CC2)c2ccccc21 | – | 0.291 µM [rising, partial curve, poor fit] | 0.164 µM [rising, full curve, poor fit]

A different layout for eleven compounds above:
SMILES,cell number change [%],AC50 [1],AC50 [2]
O=C(Nc1ccccc1Cl)Oc1ccc(Cl)cc1Cl,-51.8,"18.4 µM [falling, single point]",–
COc1ccc(N/C=C(\C#N)c2nc3ccccc3n2C)c(OC)c1,-8.67,"0.00517 µM [rising, full curve, poor fit]",–
CC(C)C[C@@H](CN=[N+]=[N-])N1CCN(C)CCC1=O,-4.21,–,–
Cc1ccc(C(=O)Nc2cccc(NC(=O)c3ccc(C)c([N+](=O)[O-])c3)n2)cc1[N+](=O)[O-],–,"6.51 µM [falling, single point]",–
CCc1ccccc1NC(=O)c1ccccc1N1C(=O)C2C3C=CC(C3)C2C1=O (stereo unspecified),-2.89,–,–
CN(C(=O)COC(=O)c1cccc(Cl)c1)C1CCS(=O)(=O)C1 (stereo unspecified),43.3,"25.9 µM [rising, partial curve, poor fit]","25.9 µM [rising, single point]"
COc1cc(C2NC(=O)c3ccccc3O2)cc(OC)c1OC (stereo unspecified),36.9,"29.1 µM [rising, partial curve, poor fit]","0.0231 µM [rising, full curve, poor fit]"
Cn1ncc(Cl)c1C(=O)N/N=C/c1ccccn1,-12.1,–,–
O=C(c1ccco1)N1CCN(C(=O)c2cnn(-c3cccc(F)c3)c2C2CCNCC2)CC1,-0.382,–,–
Cc1nn(CCCC(=O)O)c(C)c1[N+](=O)[O-],21.9,–,–
O=C(/C=C/c1ccc(O)cc1)c1ccccc1,-22.8,"18.4 µM [falling, partial curve, poor fit]",–

(cont.)

SMILES | cell number change [%] | AC50 [1] | AC50 [2]
O=C(CCC1CCN(C(=O)c2cccc(Cl)c2F)CC1)Nc1ccccc1 | 13.8 | – | –
CC1CCCCN1C(=O)COc1ccccc1F (stereo unspecified) | 19 | 0.092 µM [falling, full curve, poor fit] | –
O=C(Nc1ccc2c(c1)OCO2)N1CCN(c2cccc(C(F)(F)F)c2)CC1 | – | 1.46 µM [rising, partial curve] | 0.82 µM [rising, full curve]
O=C(NC1CCCCC1)c1cc(-c2ccccc2O)on1 | 35.4 | 0.116 µM [falling, single point] | 13 µM [rising, partial curve]
O=C(NNC(=O)C1CCCC1)c1ccccc1F | 14.5 | 9.2 µM [rising, partial curve, poor fit] | –
O=C(CSc1nc2ccccc2[nH]1)NCCCn1ccnc1 | -5.21 | 0.651 µM [rising, full curve, poor fit] | –
COc1ccccc1CNC(=O)C1CCCN1S(=O)(=O)c1cccc2cccnc12 (stereo unspecified) | – | 3.66 µM [rising, partial curve, poor fit] | 0.00461 µM [rising, full curve, poor fit]
COc1ccc(/C=C2/SC(=O)N(CCCCCC(=O)Nc3ccccc3C(=O)O)C2=S)cc1 | -32.5 | – | 1.84 µM [falling, partial curve, poor fit]
CN(C)S(=O)(=O)c1ccc2oc(SCC(=O)Nc3ccccc3F)nc2c1 | -33.7 | – | 3.66 µM [rising, single point]
COc1cc(Cl)ccc1OCc1cc(C(=O)N2CCCC(OC)C2)no1 (stereo unspecified) | 11 | 29.1 µM [rising, single point] | –
COc1ccc(/C=C(/NC(=O)c2cccc([N+](=O)[O-])c2)C(=O)O)cc1OC | -44.6 | 29.1 µM [falling, partial curve, poor fit] | –
Cc1ccc(C(=O)NCC(=O)OCC(=O)Nc2ccc(Cl)cc2C(F)(F)F)cc1C | 29 | 0.92 µM [rising, partial curve] | –
CC(=O)NC1=NN(C(C)=O)C(C)(c2cccc([N+](=O)[O-])c2)S1 (stereo unspecified) | -19.7 | – | 6.51 µM [falling, single point]
COc1cc2c(cc1OC)CN(c1nc(CN3CCOCC3)nc3sc4c(c13)CCC(C)C4)CC2 (stereo unspecified) | -12.2 | 0.146 µM [falling, full curve, poor fit] | 0.517 µM [rising, single point]
COC(=O)CCC(=O)Nc1ccc(Cl)c(Cl)c1 | 0.195 | – | –
CCOC(=O)c1ccc(-c2ccc(/C=N/NC(=O)CN(c3cccc(C)c3)S(C)(=O)=O)o2)cc1 | – | 0.116 µM [rising, full curve, poor fit] | –
O=C(CCC(=O)c1ccc(F)cc1)Nc1cccc(Br)c1 | 22.6 | 20.6 µM [rising, single point] | –
O=C(O)CCCc1nc(-c2ccc(Cl)cc2)no1 | 7.87 | – | –
CC1CCN(C(=O)C(C)Sc2nc(-c3ccccc3)cc(C(F)(F)F)n2)CC1 (stereo unspecified) | -43.1 | 1.84 µM [rising, partial curve, poor fit] | 20.6 µM [falling, single point]

Two of the compounds above, in CSV form:
SMILES,cell number change [%],AC50 [1],AC50 [2]
COC(=O)CCC(=O)Nc1ccc(Cl)c(Cl)c1,0.195,–,–
CCOC(=O)c1ccc(-c2ccc(/C=N/NC(=O)CN(c3cccc(C)c3)S(C)(=O)=O)o2)cc1,–,"0.116 µM [rising, full curve, poor fit]",–

Reference: PubChem BioAssay AID2685 (National Center for Advancing Translational Sciences (NCATS), 2010)
